Patent publication US20200323962A1, “LIPOPHILIC PEPTIDE PRODRUGS” (YISSUM RESEARCH DEVELOPMENT COMPANY OF THE HEBREW …, priority 2017, published 2020)

Experiments:
[1] = in vitro; conditions: human
[2] = in vitro; conditions: human, Caco-2, pH 7.4, Papp (AB)

- Papp A→B at 150 min ([1]; Caco-2, Caco-2 Papp A-to-B): 0.25 ×10⁻⁶ cm/s
- Papp A→B at 150 min ([1]; Caco-2, Papp AB): 0.31 ± 0.08 ×10⁻⁶ cm/s
- Papp A→B at 90 min, 10 μM ([2]; Mean): 0.8 ×10⁻⁶ cm/s
- Papp A→B at 90 min, 10 μM ([2]; replicate 1): 1 ×10⁻⁶ cm/s
- Papp A→B at 90 min, 10 μM ([2]; replicate 2): 0.8 ×10⁻⁶ cm/s
SMILES: CC(C)NCC(O)COc1ccc(CC(N)=O)cc1 (centres unmarked) [atenolol]
